Results deposited as PubChem BioAssay AID743121 (NCATS, 2013)

Screen: 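Partners whose loss is lethal together with topoisomerase I blockade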 (primary screen)
System: MDA-MB-231 cells, a human breast cancer line
Knock-down reagent: single siRNA against human genes, 20 nM siRNA (0.8 pmol per well)
Timing: 120 h (drug added 48 h after transfection, read 72 h later)
Treatment: camptothecin 20 nM (about EC30) for 72 h; vehicle 0.1% DMSO in parallel plates
Detection: 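Cell viability by ATP luminescence (CellTiter-Glo) as % of non-targeting siRNA wells, and the log2 ratio of viability without drug over viability with camptothecin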
Scale: log2 vehicle/camptothecin viability: higher = stronger sensitisation to camptothecin; viability with camptothecin and viability without drug: higher = more viable cells
Active means: 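Each gene scored by redundant siRNA activity (RSA) over its individual siRNA ratios; a gene is called active at p < 0.001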
Shown is a random part of about 26,000 deposited reagents. In the full data, 167 (0.63%) are marked active. 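Calls are per gene from RSA p-values that are not deposited; an individual active-marked siRNA can sensitise only weakly.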 The numbers tell different reagents against one gene apart.

gene knocked down,siRNA no.,log2 vehicle/camptothecin viability,viability with camptothecin (% of control),viability without drug (% of control),outcome
IL7R,1,0.0615,107,111,inactive
IL7R,2,-0.431,46.3,34.4,inactive
IL7R,3,-0.704,50.5,31,inactive
IL7R,4,0.042,74.4,76.6,inactive
SLC1A1,1,-0.26,105,87.6,inactive
SLC1A1,2,-0.411,89.2,67.1,inactive
SLC1A1,3,-0.253,104,87.4,inactive
SLC1A1,4,0.148,63.6,70.5,inactive
TYK2,1,-0.128,93.1,85.2,inactive
TYK2,2,-0.468,82.9,60,inactive
TYK2,3,-0.0305,98.8,96.7,inactive
TYK2,4,-0.241,107,90.5,inactive
CHGA,1,-0.251,103,86.4,inactive
CHGA,2,-0.27,127,106,inactive
CHGA,3,-0.117,105,97.2,inactive
CHGA,4,-0.201,69.1,60.1,inactive
AHSG,1,-0.102,106,98.6,inactive
AHSG,2,0.207,101,116,inactive
AHSG,3,0.142,69.7,76.9,inactive
AHSG,4,0.0668,70.7,74,inactive
NSMCE1,1,-0.105,77.8,72.4,inactive
NSMCE1,2,-0.13,108,98.5,inactive
NSMCE1,3,-0.555,43.1,29.4,inactive
NSMCE1,4,-0.192,57.7,50.5,inactive
SERPINB10,1,-0.168,105,93.3,inactive
SERPINB10,2,0.13,80.1,87.6,inactive
SERPINB10,3,-0.0335,92.5,90.3,inactive
SERPINB10,4,-0.0488,54.4,52.6,inactive
STK32C,1,0.211,58.5,67.8,inactive
STK32C,2,-0.189,55.3,48.5,inactive
STK32C,3,-0.421,108,80.3,inactive
STK32C,4,-0.384,72.2,55.3,inactive
ALPK1,1,-0.129,115,105,inactive
ALPK1,2,0.233,84.2,98.9,inactive
ALPK1,3,-0.452,71.2,52,inactive
ALPK1,4,0.0819,93.7,99.2,inactive
MUL1,1,-0.0361,74.2,72.3,inactive
MUL1,2,-0.102,106,99.2,inactive
MUL1,3,0.0699,89.1,93.5,inactive

The list goes on (5 carried over from the part before).
gene knocked down,siRNA no.,log2 vehicle/camptothecin viability,viability with camptothecin (% of control),viability without drug (% of control),outcome
ALPK1,3,-0.452,71.2,52,inactive
ALPK1,4,0.0819,93.7,99.2,inactive
MUL1,1,-0.0361,74.2,72.3,inactive
MUL1,2,-0.102,106,99.2,inactive
MUL1,3,0.0699,89.1,93.5,inactive
PEX13,1,0.755,38.5,64.9,inactive
PEX13,2,0.21,61.7,71.4,inactive
SMARCA2,1,-0.208,74.6,64.6,inactive
SMARCA2,2,-0.271,52.3,43.3,inactive
SMARCA2,3,-0.158,90,80.7,inactive
SMARCA2,4,-4.97,92.6,2.95,inactive
ARHGEF11,1,-0.126,82.1,75.2,inactive
ARHGEF11,2,0.0958,98.4,105,inactive
ARHGEF11,3,0.158,32.2,35.9,inactive
PHF13,1,-0.0751,92.3,87.6,inactive
PHF13,2,-0.0547,41,39.5,inactive
PHF13,3,0.643,11.4,17.8,inactive
PHF13,4,-0.358,60.6,47.3,inactive
CAPN8,1,-0.117,67.3,62.1,inactive
CAPN8,2,0.73,23.9,39.7,inactive
CAPN8,3,0.0348,87.3,89.4,inactive
CAPN8,4,-0.0365,46.8,45.7,inactive
CAPN8,5,0.357,31,39.6,inactive
CAPN8,6,0.0838,96.8,103,inactive
FEN1,1,-0.347,119,93.7,inactive
FEN1,2,-0.604,81.9,53.9,inactive
FEN1,3,0.109,67,72.3,inactive
FEN1,4,-0.0761,104,98.9,inactive
RPSA2,1,0.203,57,65.6,inactive
RPSA2,2,0.151,36.7,40.7,inactive
RPSA2,3,0.326,30.7,38.4,inactive
RPSA2,4,-0.131,104,95.3,inactive
UGT1A1,1,0.136,70.2,77.1,inactive
UGT1A1,2,0.0832,89.3,94.6,inactive
UGT1A1,3,-0.212,51.7,44.6,inactive
UGT1A1,4,0.585,14.6,21.9,inactive
AKT3,1,-0.138,113,103,inactive
AKT3,2,-0.167,42.9,38.2,inactive
AKT3,3,-0.259,110,92.1,inactive
AKT3,4,-0.216,103,88.7,inactive
OR12D3,1,0.209,23.6,27.3,inactive
OR12D3,2,0.0813,37.6,39.8,inactive
OR12D3,3,-0.17,39.5,35.1,inactive
OR12D3,4,-0.148,74.7,67.4,inactive
TLR5,1,-0.107,103,95.9,inactive
TLR5,2,-0.196,93,81.2,inactive
TLR5,3,-0.195,49.1,42.9,inactive
TLR5,4,0.292,41.8,51.2,inactive
TCF12,1,-0.0278,97.5,95.6,inactive
TCF12,2,0.35,53,67.6,inactive
TCF12,3,0.172,84.7,95.4,inactive
TCF12,4,0.162,88.9,99.4,inactive
RASSF5,1,-0.183,87.5,77.1,inactive
RASSF5,2,0.0992,43.9,47.1,inactive
RASSF5,3,-0.0907,93.9,88.2,inactive
